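Human melanoma cell lines in 1,536-well plates were treated with two drugs together for 72 h, then fixed, stained and imaged. Each value is the count of nuclei relative to DMSO-treated wells, in %, so that 100 equals the control. Every drug was used at one fixed concentration, the lower of two screened (a fifth of the higher). These are primary screening values without error estimates.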 Only some of the drugs and lines screened are listed, without regard to their results. A dash means that no value is listed here.

All values are for the listed drug together with nutlin-3 (0.1 µM): COc1ccc(C2=N[C@@H](c3ccc(Cl)cc3)[C@@H](c3ccc(Cl)cc3)N2C(=O)N2CCNC(=O)C2)c(OC(C)C)c1

Partner,A375,C32,G-361,COLO 800,LOX IMVI,COLO 792,LB2518-MEL,501mel,IPC-298,MEL-HO,A2058,COLO 829,IST-MEL1,A101D
Cn1cc(C2=C(c3cn(C4CCN(Cc5ccccn5)CC4)c4ccccc34)C(=O)NC2=O)c2ccccc21 at 0.8 µM,124,100,102,129,120,110,93.0,-,111,100,105,98.6,109,94.1
O=C(O)c1ccc(-c2c[nH]c3ncc(-c4ccccc4)cc23)cc1C1CCCC1 at 0.16 µM,76.5,88.8,85.7,102,64.8,99.3,92.0,-,100,86.8,91.7,75.6,95.5,84.6
CCCS(=O)(=O)Nc1ccc(F)c(C(=O)c2c[nH]c3ncc(Cl)cc23)c1F at 0.08 µM,76.2,-,95.0,128,93.8,87.3,109,-,101,96.5,106,126,94.7,105
CC(=O)O[C@@]12CO[C@@H]1C[C@H](O)[C@@]1(C)C(=O)[C@H](O)C3=C(C)[C@@H](OC(=O)[C@H](O)[C@@H](NC(=O)OC(C)(C)C)c4ccccc4)C[C@@](O)([C@@H](OC(=O)c4ccccc4)[C@H]21)C3(C)C at 0.0001 µM,26.7,92.0,24.2,33.5,57.9,39.9,76.0,-,69.7,73.0,18.0,54.5,65.1,66.2
CC(C)(C)c1cnc(CSc2cnc(NC(=O)C3CCNCC3)s2)o1 at 0.01 µM,77.4,95.0,95.0,141,137,82.3,87.1,-,97.0,87.1,102,89.3,107,80.1
C[C@@H](N)c1ccc(C(=O)Nc2ccnc3[nH]ccc23)cc1 at 0.4 µM,104,0.3,116,204,98.7,91.6,113,-,101,95.9,94.7,126,97.3,102
COc1cc2c(Oc3ccc4[nH]c(C)cc4c3F)ncnc2cc1OCCCN1CCCC1 at 0.4 µM,74.0,101,100,96.1,90.8,85.3,85.1,-,102,98.8,115,71.5,108,94.1
COc1ccc(-c2ccc3c(N4CCOCC4)nc(N4C[C@@H](C)O[C@@H](C)C4)nc3n2)cc1CO at 0.02 µM,-,93.0,92.9,117,110,98.0,84.5,95.9,96.9,103,79.8,92.1,99.8,75.0
Cc1cc(Nc2cc(N3CCN(C)CC3)nc(/C=C/c3ccccc3)n2)n[nH]1 at 0.04 µM,89.8,91.6,88.7,106,90.4,94.0,82.8,-,104,102,107,110,92.3,93.4
CC(=O)c1c(C)c2cnc(Nc3ccc(N4CCNCC4)cn3)nc2n(C2CCCC2)c1=O at 0.04 µM,65.4,86.5,85.9,97.7,70.0,72.5,77.2,-,88.3,98.9,98.5,94.6,80.4,68.6
Cc1ccc(NC(=O)c2cccc(N(C)C)c2)cc1NC(=O)c1ccc(O)cc1 at 2 µM,90.9,85.4,109,90.6,92.6,116,84.8,-,89.3,93.4,101,79.5,102,96.5
COc1cc(N2CCC(N3CCN(C)CC3)CC2)ccc1Nc1ncc(Cl)c(Nc2ccccc2S(=O)(=O)C(C)C)n1 at 0.08 µM,-,94.8,92.2,106,83.2,119,101,87.6,94.8,85.6,90.3,77.7,101,76.2
NCC(=O)Nc1ccc(-n2nc(C(F)(F)F)cc2-c2ccc3c(ccc4ccccc43)c2)cc1 at 1 µM,15.5,107,110,77.2,91.5,96.2,94.1,-,84.7,98.9,98.8,105,89.6,97.0
CN(c1ncccc1CNc1nc(Nc2ccc3c(c2)CC(=O)N3)ncc1C(F)(F)F)S(C)(=O)=O at 0.08 µM,85.8,97.9,91.0,66.9,70.5,76.1,84.8,-,99.0,89.4,98.5,86.4,99.9,85.6
N.N.[Cl][Pt][Cl] at 1.6 µM,93.4,102,85.2,69.3,52.2,85.2,93.1,-,93.2,93.2,89.2,78.3,92.6,88.4
CC1(C)NC(=O)N(c2ccc([N+](=O)[O-])c(C(F)(F)F)c2)C1=O at 1 µM,104,102,90.1,98.5,111,88.5,82.0,-,99.8,92.5,95.9,84.5,96.6,78.2
COc1cc(Nc2ncc(F)c(Nc3ccc4c(n3)NC(=O)C(C)(C)O4)n2)cc(OC)c1OC at 0.4 µM,80.1,95.5,95.3,83.2,105,69.4,75.2,-,84.6,86.9,86.3,83.3,92.0,78.5
O=C1NC(=O)/C(=C/c2ccc(-c3ccc(F)cc3O)o2)S1 at 1 µM,-,106,79.9,99.6,66.8,96.2,82.6,81.8,93.9,92.9,86.0,91.9,92.8,85.1
NC(=O)c1ccc(N(C(N)=O)c2c(F)cccc2F)nc1-c1ccc(F)cc1F at 0.4 µM,105,93.4,86.2,97.8,110,85.0,99.2,-,96.0,101,100,92.7,101,93.5
C[C@@H]1CCN(C(=O)CC#N)C[C@@H]1N(C)c1ncnc2[nH]ccc12 at 1 µM,89.5,84.3,79.7,131,66.1,104,87.2,-,101,94.5,83.6,95.5,97.2,85.3
Oc1cc(-c2nc(-c3ccccc3)[nH]c2-c2ccncc2)ccc1Cl at 0.2 µM,-,88.9,77.8,104,128,101,77.8,62.6,84.9,67.3,106,119,96.2,89.9
CN1CCN(c2ccc3nc(-c4c(N)c5c(F)cccc5[nH]c4=O)[nH]c3c2)CC1 at 0.1 µM,74.4,105,94.3,78.9,72.2,96.9,77.9,-,103,96.2,102,101,93.3,84.7
C=CCNC1=C2C[C@@H](C)C[C@H](OC)[C@H](O)[C@@H](C)/C=C(\C)[C@H](OC(N)=O)[C@@H](OC)/C=C\C=C(/C)C(=O)NC(=CC1=O)C2=O at 0.002 µM,96.1,85.6,102,87.8,67.0,100,95.9,-,105,93.4,97.7,100,106,91.8
C=CCn1c(=O)c2cnc(Nc3ccc(N4CCN(C)CC4)cc3)nc2n1-c1cccc(C(C)(C)O)n1 at 0.02 µM,48.6,82.4,79.8,80.8,134,87.4,81.3,-,99.6,99.7,101,79.5,104,75.4
O=C(CCCCCCC(=O)Nc1ccccc1)NO at 0.08 µM,104,94.7,106,73.1,86.6,80.7,93.1,-,95.6,88.3,90.6,91.4,92.3,88.2
Oc1nc(-c2ccc(C(F)(F)F)cc2)nc2c1CSCC2 at 2 µM,-,92.9,80.3,145,90.8,87.4,78.3,75.5,90.8,96.5,87.7,94.2,97.4,83.5
CCN(CC)CCCCNc1ncc2cc(-c3cc(OC)cc(OC)c3)c(NC(=O)NC(C)(C)C)nc2n1 at 0.1 µM,-,80.3,98.3,79.7,107,84.8,81.0,103,97.9,111,87.9,89.3,106,78.8
COc1ccc(COc2ccc(Cc3cnc(N)nc3N)cc2OC)cc1 at 1 µM,-,89.3,87.9,84.6,56.1,88.8,77.0,98.9,99.6,98.8,116,21.5,105,84.1
O=C(Nc1ccccc1)c1cc([N+](=O)[O-])ccc1Cl at 2 µM,-,89.2,93.9,154,58.4,109,92.1,91.6,103,85.6,87.2,81.9,98.9,87.3
O=C(O)C(=O)Nc1sc2c(c1C(=O)O)CCNC2 at 1.67 µM,-,84.0,87.3,65.5,86.4,101,82.9,88.8,97.3,80.1,92.0,99.4,102,83.8
Cc1cc(Nc2cc(N3CCN(C)CC3)nc(Sc3ccc(NC(=O)C4CC4)cc3)n2)n[nH]1 at 0.006 µM,108,85.3,95.0,157,99.7,87.7,84.5,-,111,106,93.6,89.2,111,94.6
Cc1cc(N2CCOCC2)cc2[nH]c(-c3c(NC[C@@H](O)c4cccc(Cl)c4)cc[nH]c3=O)nc12 at 0.2 µM,67.4,69.3,85.6,70.7,154,95.6,89.8,-,95.8,102,100,101,97.3,84.7
OCCn1cc(-c2cnc3nnn(Cc4ccc5ncccc5c4)c3n2)cn1 at 1 µM,102,89.2,90.1,107,130,103,97.4,-,104,100,97.4,83.4,104,102
Cn1nnc2c(C(N)=O)ncn2c1=O at 2 µM,90.6,89.3,86.3,115,107,81.6,81.2,-,95.6,94.9,79.8,84.7,85.4,84.4
CC(C)CCN1c2nc(Nc3cc(F)c(O)c(F)c3)ncc2N(C)C(=O)C1C (stereo unspecified) at 0.2 µM,-,89.6,89.6,80.2,117,88.4,87.4,81.1,93.8,85.0,108,78.7,99.7,76.2

Repeated from the top, 4 entries:

Partner	A375	C32	G-361	COLO 800	LOX IMVI	COLO 792	LB2518-MEL	501mel	IPC-298	MEL-HO	A2058	COLO 829	IST-MEL1	A101D
Cn1cc(C2=C(c3cn(C4CCN(Cc5ccccn5)CC4)c4ccccc34)C(=O)NC2=O)c2ccccc21 at 0.8 µM	124	100	102	129	120	110	93.0	-	111	100	105	98.6	109	94.1
O=C(O)c1ccc(-c2c[nH]c3ncc(-c4ccccc4)cc23)cc1C1CCCC1 at 0.16 µM	76.5	88.8	85.7	102	64.8	99.3	92.0	-	100	86.8	91.7	75.6	95.5	84.6
CCCS(=O)(=O)Nc1ccc(F)c(C(=O)c2c[nH]c3ncc(Cl)cc23)c1F at 0.08 µM	76.2	-	95.0	128	93.8	87.3	109	-	101	96.5	106	126	94.7	105
CC(=O)O[C@@]12CO[C@@H]1C[C@H](O)[C@@]1(C)C(=O)[C@H](O)C3=C(C)[C@@H](OC(=O)[C@H](O)[C@@H](NC(=O)OC(C)(C)C)c4ccccc4)C[C@@](O)([C@@H](OC(=O)c4ccccc4)[C@H]21)C3(C)C at 0.0001 µM	26.7	92.0	24.2	33.5	57.9	39.9	76.0	-	69.7	73.0	18.0	54.5	65.1	66.2

Data from the primary screen of doi:10.1371/journal.pone.0140310, rounded.